Measured values reported in publication doi:10.1101/2024.09.30.615192.
These are yes or no findings as the source states them, for the method shown. In cells and extracts the contact can be indirect. Here binding means that the protein was enriched with, or labelled near, the bait; the list need not be complete.

Amino acid sequences for entries named in this document (tags omitted). Residues count along the entry.
UniProt P48764, residues 26-834: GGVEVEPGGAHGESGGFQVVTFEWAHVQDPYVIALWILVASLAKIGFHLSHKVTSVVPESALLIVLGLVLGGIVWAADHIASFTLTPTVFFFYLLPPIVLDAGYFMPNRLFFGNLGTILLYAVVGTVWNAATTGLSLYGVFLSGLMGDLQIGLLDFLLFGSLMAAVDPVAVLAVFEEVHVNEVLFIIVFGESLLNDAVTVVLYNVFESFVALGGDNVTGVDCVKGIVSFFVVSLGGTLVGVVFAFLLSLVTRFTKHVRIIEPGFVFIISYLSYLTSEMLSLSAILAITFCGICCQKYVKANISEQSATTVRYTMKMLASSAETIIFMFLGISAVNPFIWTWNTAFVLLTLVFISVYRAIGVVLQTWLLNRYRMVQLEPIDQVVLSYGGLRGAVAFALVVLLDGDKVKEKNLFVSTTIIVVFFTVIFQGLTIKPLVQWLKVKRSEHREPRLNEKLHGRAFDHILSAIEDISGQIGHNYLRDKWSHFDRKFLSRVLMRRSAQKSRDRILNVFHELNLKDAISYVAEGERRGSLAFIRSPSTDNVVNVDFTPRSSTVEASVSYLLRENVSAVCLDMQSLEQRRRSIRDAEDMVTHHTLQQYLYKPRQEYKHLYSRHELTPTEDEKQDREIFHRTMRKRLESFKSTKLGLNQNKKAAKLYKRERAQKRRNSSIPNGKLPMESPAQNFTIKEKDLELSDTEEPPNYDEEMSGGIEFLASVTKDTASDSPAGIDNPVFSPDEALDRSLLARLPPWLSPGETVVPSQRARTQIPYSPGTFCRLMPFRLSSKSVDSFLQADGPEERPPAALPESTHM
UniProt P35613, residues 22-385: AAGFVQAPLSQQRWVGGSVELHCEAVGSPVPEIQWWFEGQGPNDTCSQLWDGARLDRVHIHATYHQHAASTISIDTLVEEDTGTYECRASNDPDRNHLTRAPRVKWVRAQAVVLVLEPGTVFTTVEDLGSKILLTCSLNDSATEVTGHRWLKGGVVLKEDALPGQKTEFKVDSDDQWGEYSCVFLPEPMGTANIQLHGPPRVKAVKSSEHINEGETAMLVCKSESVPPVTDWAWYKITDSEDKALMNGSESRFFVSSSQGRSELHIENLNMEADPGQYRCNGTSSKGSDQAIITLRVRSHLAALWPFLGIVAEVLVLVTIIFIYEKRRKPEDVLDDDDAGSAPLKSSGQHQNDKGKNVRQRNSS

T1: SLC16A5 (human) (UniProt O15375)
T1 sequence: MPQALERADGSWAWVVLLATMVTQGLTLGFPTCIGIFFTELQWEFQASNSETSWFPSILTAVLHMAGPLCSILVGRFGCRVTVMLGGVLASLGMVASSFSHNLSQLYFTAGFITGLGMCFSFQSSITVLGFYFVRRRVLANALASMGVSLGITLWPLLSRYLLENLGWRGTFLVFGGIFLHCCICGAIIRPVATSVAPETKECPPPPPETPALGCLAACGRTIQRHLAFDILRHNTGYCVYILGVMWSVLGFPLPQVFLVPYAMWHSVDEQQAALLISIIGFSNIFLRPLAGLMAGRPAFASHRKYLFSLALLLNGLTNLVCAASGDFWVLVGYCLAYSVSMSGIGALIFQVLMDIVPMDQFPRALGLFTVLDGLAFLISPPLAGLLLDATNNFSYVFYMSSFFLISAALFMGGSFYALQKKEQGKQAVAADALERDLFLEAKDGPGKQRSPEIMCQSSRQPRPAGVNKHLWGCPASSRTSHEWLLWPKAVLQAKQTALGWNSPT

T2: SLC9A5 (human) (UniProt Q14940)
T2 sequence: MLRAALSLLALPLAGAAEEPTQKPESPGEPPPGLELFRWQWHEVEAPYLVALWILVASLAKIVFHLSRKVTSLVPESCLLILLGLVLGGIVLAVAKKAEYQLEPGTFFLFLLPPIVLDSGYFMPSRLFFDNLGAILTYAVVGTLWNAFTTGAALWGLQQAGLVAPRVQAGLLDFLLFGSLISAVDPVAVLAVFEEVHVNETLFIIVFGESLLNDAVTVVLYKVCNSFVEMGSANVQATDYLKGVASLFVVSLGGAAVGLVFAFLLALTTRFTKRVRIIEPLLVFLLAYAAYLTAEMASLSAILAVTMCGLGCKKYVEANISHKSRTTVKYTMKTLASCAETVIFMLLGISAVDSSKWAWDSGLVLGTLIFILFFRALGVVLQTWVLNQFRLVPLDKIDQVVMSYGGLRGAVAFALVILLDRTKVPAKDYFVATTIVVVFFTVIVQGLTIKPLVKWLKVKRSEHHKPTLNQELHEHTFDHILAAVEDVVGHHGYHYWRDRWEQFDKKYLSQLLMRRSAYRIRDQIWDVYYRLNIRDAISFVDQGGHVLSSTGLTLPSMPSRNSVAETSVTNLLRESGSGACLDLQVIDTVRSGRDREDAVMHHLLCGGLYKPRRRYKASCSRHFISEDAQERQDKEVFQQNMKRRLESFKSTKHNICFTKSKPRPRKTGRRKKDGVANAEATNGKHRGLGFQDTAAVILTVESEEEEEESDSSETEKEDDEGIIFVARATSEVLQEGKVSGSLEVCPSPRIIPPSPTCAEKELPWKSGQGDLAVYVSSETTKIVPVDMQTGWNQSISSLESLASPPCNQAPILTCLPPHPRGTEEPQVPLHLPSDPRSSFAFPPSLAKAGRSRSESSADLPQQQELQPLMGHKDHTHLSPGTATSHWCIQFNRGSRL

T3: SLC9A2 (human) (UniProt Q9UBY0)
T3 sequence: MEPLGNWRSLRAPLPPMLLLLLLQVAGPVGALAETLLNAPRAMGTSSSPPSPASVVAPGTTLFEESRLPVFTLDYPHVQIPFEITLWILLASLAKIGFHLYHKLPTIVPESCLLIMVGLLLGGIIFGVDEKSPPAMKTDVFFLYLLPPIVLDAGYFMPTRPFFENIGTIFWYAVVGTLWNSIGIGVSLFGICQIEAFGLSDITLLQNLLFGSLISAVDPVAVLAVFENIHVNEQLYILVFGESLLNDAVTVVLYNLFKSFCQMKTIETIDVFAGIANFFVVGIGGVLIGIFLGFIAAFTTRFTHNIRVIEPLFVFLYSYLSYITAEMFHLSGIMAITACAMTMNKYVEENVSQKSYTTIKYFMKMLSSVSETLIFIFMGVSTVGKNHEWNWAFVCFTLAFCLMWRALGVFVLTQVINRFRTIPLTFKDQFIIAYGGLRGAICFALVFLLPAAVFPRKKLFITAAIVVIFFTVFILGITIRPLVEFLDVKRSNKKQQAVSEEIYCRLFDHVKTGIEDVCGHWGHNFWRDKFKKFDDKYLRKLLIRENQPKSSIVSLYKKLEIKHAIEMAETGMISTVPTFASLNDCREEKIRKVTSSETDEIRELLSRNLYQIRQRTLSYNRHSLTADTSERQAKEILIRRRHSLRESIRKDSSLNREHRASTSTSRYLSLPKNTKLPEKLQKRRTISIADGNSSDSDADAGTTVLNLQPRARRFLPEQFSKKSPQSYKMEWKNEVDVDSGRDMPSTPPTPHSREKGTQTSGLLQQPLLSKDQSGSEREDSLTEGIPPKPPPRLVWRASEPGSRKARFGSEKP


Assays:
Experiment in all cases: affinity purification with mass spectrometry
SLC16A5 (human) = molecular target: T1, SLC16A5 (human)
SLC9A5 (human) = molecular target: T2, SLC9A5 (human)
SLC9A2 (human) = molecular target: T3, SLC9A2 (human)
SLC9A3 (human) = SLC9A3 (human) (UniProt P48764)

binding (SLC16A5 (human)) | binding (SLC9A5 (human)) | binding (SLC9A2 (human)) | binding (SLC9A3 (human)) | Molecule
binds | – | – | – | Basigin (from UniProt P35613 22-385)
– | binds | binds | binds | calcium-binding protein CHP1 (protein, UniProt Q99653 1-195) MGSRASTLLRDEELEEIKKETGFSHSQITRLYSRFTSLDKGENGTLSREDFQRIPELAINPLGDRIINAFFPEGEDQVNFRGFMRTLAHFRPIEDNEKSKDVNGPEPLNSRSNKLHFAFRLYDLDKDEKISRDELLQVLRMMVGVNISDEQLGSIADRTIQEADQDGDSAISFTEFVKVLEKVDVEQKMSIRFLH
